Laboratory results reported in patent US20190263898A1.
Results are given in words; binding and its absence hold for the method and conditions named. Some results given as binding are weak or reduced against the parent protein; the word gives no strength. For some of these results: Tags and fused reporters may be left off the sequences shown.

What was measured:
[1] = biological target: T1, truncated Tau protein in fiber form (polymerized R3 peptide); test: ELISA, 2C5 titrated on polymerized R3 peptide (Mimes)
T1 sequence (peptide): VQIVYKPVDLSKVTSKCG

[2] = biological target: T1, truncated Tau protein in fiber form (polymerized R3 peptide); test: ELISA, unlabeled 2C5 titrated on polymers of the R3 sequence of Tau (R3 Fibers), PBS with 1% BSA, pH 7.5; PBS wells as control
[3] = biological target: T1, truncated Tau protein in fiber form (polymerized R3 peptide); test: ELISA on polymers of the R3 sequence of Tau, PBS with 1% BSA, pH 7.5
[4] = biological target: T1, truncated Tau protein in fiber form (polymerized R3 peptide); test: ELISA-format assay with 2C5 radiolabeled with iodine 125 on polymers of the R3 sequence of Tau, CPM readout (sheet title: RIA 125I 2C5), PBS with 1% BSA, pH 7.5; PBS wells as control

Row | Binder | binding [1] | binding [2] | binding [3] | binding [4]
1 | 2C5 nanobody (VHH) with C-terminal myc and six histidine residues tag (VHH) VHH: QVQLVQSGGGLVQAGGSLRLSCAASGRTFSSDTLAWFRQAPGKEREFVASISPSGGVTYYEDSVKGRFTISRDNSKNTVLLQMNSLTPEDTAVYYCNRDPKYGNTRYWGQGTQVTVSS | binds | binds |  | 
2 | 2C5 nanobody radiolabeled with iodine 125 (VHH, radiolabeled with iodine 125 (site not stated)) VHH: QVQLVQSGGGLVQAGGSLRLSCAASGRTFSSDTLAWFRQAPGKEREFVASISPSGGVTYYEDSVKGRFTISRDNSKNTVLLQMNSLTPEDTAVYYCNRDPKYGNTRYWGQGTQVTVSS |  |  | binds | binds
